For part of these data: Expression grades refer to the transcript from which the peptide derives; gene names, where given, were looked up from the sequence.
Key:
HLA-A*24 = experiment: Identification and relative LC-MS quantitation of HLA-A*24-presented tumor-associated peptides on tissue samples (presentation profiles, Tables 14A, 14B, 16, FIG. 1); design: species or system human; key to Presentation score GC / Presentation score NSCLC / Presentation score PCA / Presentation score GB / Presentation score HCC / Presentation score RCC: specifically presented on tumors (++++); very highly over-presented on tumors compared to a panel of normal tissues (+++); highly over-presented on tumors compared to a panel of normal tissues (++); over-presented on tumors compared to a panel of normal tissues (+); details: for number of cancer tissues where the peptide was found to be presented: only samples with presentation shown; for Presentation score GC: gastric cancer (N = 44) vs panel of normal tissues (N = 70); for Presentation score NSCLC: non-small cell lung cancer (N = 91) vs panel of normal tissues (N = 70); for Presentation score PCA: prostate cancer (N = 40) vs panel of normal tissues (N = 70); for Peptide Presentation on cancer entities: Table 14A, HLA-A*24-binding tumor-associated peptides, cancer entities on which the peptide was found presented
source genes (mRNA) [1] = experiment: Gene and exon expression of source genes, TCGA tumor samples compared with normal tissue samples (Lonsdale, 2013) (Table 17); design: species or system human; details: for Over-expression category of source gene (target coverage), BLCA: BLCA = Bladder urothelial carcinoma (N = 408); for Over-expression category of source gene (target coverage), BRCA: BRCA = Breast cancer (N = 1104), tumors more than 2-fold above highest 75% percentile of normal tissues; for Over-expression category of source gene (target coverage), CHOL: CHOL = Cholangiocarcinoma (N = 36); for Over-expression category of source gene (target coverage), COAD: COAD = Colon and rectal adenocarcinoma (N = 462); for Over-expression category of source gene (target coverage), DLBC: DLBC = Lymphoid neoplasm diffuse large B-cell lymphoma (N = 48); for Over-expression category of source gene (target coverage), ESCA: ESCA = Esophageal cancer (N = 185); for Over-expression category of source gene (target coverage), GBM: GBM = Glioblastoma multiforme (N = 169); for Over-expression category of source gene (target coverage), LAML: LAML = Acute Myeloid Leukemia (N = 173); for Over-expression category of source gene (target coverage), LIHC: LIHC = Liver hepatocellular carcinoma (N = 374); for Over-expression category of source gene (target coverage), LUAD: LUAD = Lung adenocarcinoma (N = 517); for Over-expression category of source gene (target coverage), LUSC: LUSC = Lung squamous cell carcinoma (N = 503); for Over-expression category of source gene (target coverage), READ: READ = Colon and rectal adenocarcinoma (N = 167); for Over-expression category of source gene (target coverage), SKCM: SKCM = Skin cutaneous melanoma (N = 473); for Over-expression category of source gene (target coverage), STAD: STAD = Stomach adenocarcinoma (N = 415); for Over-expression category of source gene (target coverage), UCEC: UCEC = Uterine corpus endometrial carcinoma (N = 546)
source genes (mRNA) [2] = experiment: Expression profiling of source genes by in-house RNASeq of tumor and normal tissues (Table 18, FIG. 2); design: species or system human; key: very highly over-expressed in tumors compared to a panel of normal tissues (+++); highly over-expressed in tumors compared to a panel of normal tissues (++); over-expressed in tumors compared to a panel of normal tissues (+); details: source gene of peptide; for Expression score BRCA: BRCA tumors vs panel of normal tissues; for Expression score OSCAR: esophageal cancer incl. gastric-esophageal junction (N = 11) vs panel of normal tissues; for Expression score GBC_CCC: gallbladder adenocarcinoma and cholangiocarcinoma (N = 3) vs panel of normal tissues; for Expression score NHL: non-Hodgkin lymphoma (N = 10) vs panel of normal tissues; for Expression score NSCLC: non-small cell lung cancer (N = 11) vs panel of normal tissues; for Expression score OC: ovarian cancer (N = 12) vs panel of normal tissues; for Expression score SCLC: small cell lung cancer (N = 10) vs panel of normal tissues

Substance	number of cancer tissues where the peptide was found to be presented (HLA-A*24; FIG. 1, A*24 positive samples)	Presentation score GC (HLA-A*24; HLA-A*24 peptides)	Presentation score NSCLC (HLA-A*24; HLA-A*24 peptides)	Presentation score PCA (HLA-A*24; HLA-A*24 peptides)	Peptide Presentation on cancer entities (HLA-A*24)	Over-expression category of source gene (target coverage), BLCA (source genes (mRNA) [1]; same cutoff)	Over-expression category of source gene (target coverage), BRCA (source genes (mRNA) [1])	Over-expression category of source gene (target coverage), CHOL (source genes (mRNA) [1]; same cutoff)	Over-expression category of source gene (target coverage), COAD (source genes (mRNA) [1]; same cutoff)	Over-expression category of source gene (target coverage), DLBC (source genes (mRNA) [1]; same cutoff)	Over-expression category of source gene (target coverage), ESCA (source genes (mRNA) [1]; same cutoff)	Over-expression category of source gene (target coverage), GBM (source genes (mRNA) [1]; same cutoff)	Over-expression category of source gene (target coverage), LAML (source genes (mRNA) [1]; same cutoff)	Over-expression category of source gene (target coverage), LIHC (source genes (mRNA) [1]; same cutoff)	Over-expression category of source gene (target coverage), LUAD (source genes (mRNA) [1]; same cutoff)	Over-expression category of source gene (target coverage), SKCM (source genes (mRNA) [1]; same cutoff)	Expression score BRCA (source genes (mRNA) [2])	Expression score NHL (source genes (mRNA) [2])	Expression score NSCLC (source genes (mRNA) [2])	Expression score SCLC (source genes (mRNA) [2])	other results
160: peptide found in ATAD2 (gene looked up) (VYTLDIPVL; listed as Homo sapiens) [compound 160]	17	++++	++++	++++	GC, NSCLC, HCC, PCA	B (>= 20% of tumors above the cutoff, but <50%)	A (>=50% of tumors above the cutoff)	C (>=5% of tumors above the cutoff, but <20%)	B (>= 20% of tumors above the cutoff, but <50%)	B (>= 20% of tumors above the cutoff, but <50%)	A (>=50% of tumors above the cutoff)	C (>=5% of tumors above the cutoff, but <20%)	A (>=50% of tumors above the cutoff)	C (>=5% of tumors above the cutoff, but <20%)	B (>= 20% of tumors above the cutoff, but <50%)	B (>= 20% of tumors above the cutoff, but <50%)	+	+	+	+++	Presentation score HCC (HLA-A*24; HLA-A*24 peptides, hepatocellular carcinoma (N = 15) vs panel of normal tissues (N = 70)): ++++; Over-expression category of source gene (target coverage), LGG (source genes (mRNA) [1]; LGG = Lower grade glioma (N = 534), same cutoff): C (>=5% of tumors above the cutoff, but <20%); Over-expression category of source gene (target coverage), LUSC (source genes (mRNA) [1]; same cutoff): A (>=50% of tumors above the cutoff); Over-expression category of source gene (target coverage), OV (source genes (mRNA) [1]; OV = Ovarian serous cystadenocarcinoma (N = 309), same cutoff): A (>=50% of tumors above the cutoff); Over-expression category of source gene (target coverage), PRAD (source genes (mRNA) [1]; PRAD = Prostate adenocarcinoma (N = 498), same cutoff): C (>=5% of tumors above the cutoff, but <20%); Over-expression category of source gene (target coverage), READ (source genes (mRNA) [1]; same cutoff): B (>= 20% of tumors above the cutoff, but <50%); Over-expression category of source gene (target coverage), STAD (source genes (mRNA) [1]; same cutoff): A (>=50% of tumors above the cutoff); Over-expression category of source gene (target coverage), UCEC (source genes (mRNA) [1]; same cutoff): C (>=5% of tumors above the cutoff, but <20%); Expression score CRC (source genes (mRNA) [2]; colorectal cancer (N = 20) vs panel of normal tissues): +; Expression score OSCAR (source genes (mRNA) [2]): +; Expression score GBC_CCC (source genes (mRNA) [2]): +; Expression score OC (source genes (mRNA) [2]): ++
164: peptide found in GZMK (gene looked up) (KFSSFSLFF; listed as Homo sapiens) [compound 164]	14	++++	++++	++++	GC, NSCLC, PCA					A (>=50% of tumors above the cutoff)			C (>=5% of tumors above the cutoff, but <20%)			C (>=5% of tumors above the cutoff, but <20%)	+	+	+	+	number of cell lines where the peptide was found to be presented (HLA-A*24; FIG. 1, A*24 positive samples, cell lines include benign prostate hyperplasias): 2; Over-expression category of source gene (target coverage), KIRC (source genes (mRNA) [1]; KIRC = Clear cell kidney carcinoma (N = 534), same cutoff): B (>= 20% of tumors above the cutoff, but <50%); Expression score GBC_CCC (source genes (mRNA) [2]): +; Expression score PC (source genes (mRNA) [2]; pancreatic cancer (N = 26) vs panel of normal tissues): +; Expression score RCC (source genes (mRNA) [2]; renal cell carcinoma (N = 10) vs panel of normal tissues): ++
165: peptide found in SPAG5 (gene looked up) (DYTTWTALL; listed as Homo sapiens) [compound 165]		++++	++++		GC, NSCLC	B (>= 20% of tumors above the cutoff, but <50%)	C (>=5% of tumors above the cutoff, but <20%)	C (>=5% of tumors above the cutoff, but <20%)	C (>=5% of tumors above the cutoff, but <20%)	A (>=50% of tumors above the cutoff)	B (>= 20% of tumors above the cutoff, but <50%)	C (>=5% of tumors above the cutoff, but <20%)	C (>=5% of tumors above the cutoff, but <20%)	C (>=5% of tumors above the cutoff, but <20%)	C (>=5% of tumors above the cutoff, but <20%)	C (>=5% of tumors above the cutoff, but <20%)	+	++	+	++	Over-expression category of source gene (target coverage), LUSC (source genes (mRNA) [1]; same cutoff): B (>= 20% of tumors above the cutoff, but <50%); Over-expression category of source gene (target coverage), READ (source genes (mRNA) [1]; same cutoff): C (>=5% of tumors above the cutoff, but <20%); Over-expression category of source gene (target coverage), STAD (source genes (mRNA) [1]; same cutoff): C (>=5% of tumors above the cutoff, but <20%); Over-expression category of source gene (target coverage), UCEC (source genes (mRNA) [1]; same cutoff): B (>= 20% of tumors above the cutoff, but <50%); Expression score OSCAR (source genes (mRNA) [2]): +; Expression score GB (source genes (mRNA) [2]; glioblastoma (N = 24) vs panel of normal tissues): +; Expression score OC (source genes (mRNA) [2]): +; Expression score UBC (source genes (mRNA) [2]; urinary bladder cancer (N = 10) vs panel of normal tissues): +

Reference: patent publication US20170189504A1, “NOVEL PEPTIDES AND COMBINATION OF PEPTIDES FOR USE IN IMMUNOTHERAPY AGAINST VARIOUS CANCERS” (immatics biotechnologies GmbH, priority 2015, published 2017)
